For at least one entry, the source does not settle the construct or the ends of the probe. Protein sequences can lack the tags named with them.

Series [1] deals with T1, PhoB (Desulfovibrio vulgaris Hildenborough) (UniProt Q72D47).
T1 sequence (looked up, limits assumed): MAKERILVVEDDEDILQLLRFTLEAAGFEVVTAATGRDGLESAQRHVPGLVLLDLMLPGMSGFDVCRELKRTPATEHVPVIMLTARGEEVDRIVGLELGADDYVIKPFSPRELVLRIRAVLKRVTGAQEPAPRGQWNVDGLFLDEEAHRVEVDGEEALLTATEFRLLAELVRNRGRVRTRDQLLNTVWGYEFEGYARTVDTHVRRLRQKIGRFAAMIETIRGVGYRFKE
Nature of the series: EMSA. The following applies: 125-250 pmol PhoB; 10 mM Tris-HCl pH 7.5, 50 mM KCl, 5 mM MgCl2, 1 ug/ml poly dI.dC, 100 fmol biotinylated DNA in 20 ul, room temperature, 20 min; recombinant protein; protein details: C-terminal V5 epitope and 6xHis; label: biotin on reverse primer; probe letters rebuilt from the primers and the genome. (In EMSA bound probe runs differently from free probe, usually more slowly.)

Series [2] concerns the target T2, LurR (Desulfovibrio vulgaris Hildenborough) (UniProt Q726T3).
T2 sequence (looked up, limits assumed): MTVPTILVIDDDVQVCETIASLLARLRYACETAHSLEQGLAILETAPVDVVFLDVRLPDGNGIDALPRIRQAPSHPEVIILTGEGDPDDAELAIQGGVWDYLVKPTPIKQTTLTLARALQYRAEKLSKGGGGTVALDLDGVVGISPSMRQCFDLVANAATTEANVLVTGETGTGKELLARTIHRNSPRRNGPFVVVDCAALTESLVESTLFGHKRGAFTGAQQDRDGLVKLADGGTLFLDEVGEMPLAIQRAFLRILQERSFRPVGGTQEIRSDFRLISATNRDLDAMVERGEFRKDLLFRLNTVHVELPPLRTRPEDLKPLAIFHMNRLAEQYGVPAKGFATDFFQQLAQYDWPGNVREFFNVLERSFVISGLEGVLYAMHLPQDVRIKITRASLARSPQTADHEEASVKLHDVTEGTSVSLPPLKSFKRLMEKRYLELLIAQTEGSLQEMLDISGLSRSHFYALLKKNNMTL
Description: EMSA. The following applies: 0.5-2.5 pmol LurR; 10 mM Tris-HCl pH 7.5, 50 mM KCl, 5 mM MgCl2, 1 ug/ml poly dI.dC, 100 fmol biotinylated DNA in 20 ul, room temperature, 20 min; recombinant protein; protein details: C-terminal V5 epitope and 6xHis; label: biotin on reverse primer; probe letters rebuilt from the primers and the genome.

As to “CAGACAGCCACCCGGTAGGCCGTTTACCCGCACAATCATGGCATCATCGCCATCTTCGGCGCATTGTCAGTAGGGTAACGCCACACGAAGTCCGCTTTTCAAGACACGCTACCACGCAACCCCATCCACGAGAAACGACAGCCGGAGGAAAAACCAAGGTTACAGCATAGTTACAGATAACACACCATTGGCACATTTCTTGTTAAACTTGCGGAGTTCGCGCTCTCCGCGCAACGGTCTCGGGCTCGCCCGCAAGCACCGTGAACTCCAGCCTCCGGCCCCCGGCGGCATGCCATTTTCACCACGCGCCCACCACAGGGCAGAAAAAGGAGATCGTAAATGGCCAAG (double strand) [por promoter substrate II (348 bp)]”, the binding result in series [1] and in series [2] was “binds” in each case.

Regarding “CACTCTGAACCGTGGTCGCACACACCCCATCCGCTTTTTCAGACACGACCCGACACCGCGCCCCTACGTCCACTTTTTCAGACAGCCACCCGGTAGGCCGTTTACCCGCACAATCATGGCATCATCGCCATCTTCGGCGCATTGTCAGTAGGGTAACGCCACACGAAGTCCGCTTTTCAAGACACGCTACCACGCAACCCCATCCACGAGAAACGACAGCCGGAGGAAAAACCAAGGTTACAGCATAGTTACAGATAACACACCATTGGCACATTTCTTGTTAAACTTGCGGAGTTCGCGCTCTCCGCGCAACGGTCTCGGGCTCGCCCGCAAGCACCGTGAACTCCAGCCTCCGGCCCCCGGCGGCATGCCATTTTCACCACGCGCCCACCACAGGGCAGAAAAAGGAGATCGTAAATGGCCAAG (double strand) [por promoter substrate I (426 bp)]”, the binding result in series [1] and in series [2] was “binds” throughout.

(Values after paper PMC6456213, “LurR is a regulator of the central lactate oxidation pathway in sulfate-reducing Desulfovibrio species”.)
